PubChem BioAssay AID652272 – Drosophila RNAi Screening Center, 2013

- Assay: 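Genome-wide knock-down search for components of Hedgehog signalling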 (primary screen)
- Cell system: Drosophila clone 8 (Cl8) cells
- Reagents: long dsRNA against Drosophila genes
- Measured: 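Firefly light from a Hedgehog-responsive ptc promoter reporter and Renilla reference light, both read on a plate reader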
- Reading the numbers: firefly Hh reporter signal: higher = more ptc reporter light; Renilla reference signal: higher = more Renilla control light
- Rule for the call: 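Called a hit if the two-replicate mean z-score lies below -2 or above +3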
- Calls: active = hit: reporter lowered or raised; inactive = not a hit
The screen tested about 21,000 reagents; below is an unselected part of those with a known target gene and a result. Over the whole deposit, 503 (2.4%) are marked active. 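Raw plate light values, not normalised; calls rest on replicate z-scores that were not deposited; hits include reporter decreases as well as increases.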 Not stated in the record: the amount of reagent, the time to read-out.

CG14414 scored firefly Hh reporter signal, replicate 1 = 94054; firefly Hh reporter signal, replicate 2 = 2.12e5; Renilla reference signal, replicate 1 = 2676; Renilla reference signal, replicate 2 = 9777; inactive.
CG17108 scored firefly Hh reporter signal, replicate 1 = 1.67e5; firefly Hh reporter signal, replicate 2 = 62512; Renilla reference signal, replicate 1 = 4416; Renilla reference signal, replicate 2 = 6667; inactive.
Against Rcc1 (Regulator of chromosome condensation 1), the entry reads firefly Hh reporter signal, replicate 1 = 70685; firefly Hh reporter signal, replicate 2 = 59380; Renilla reference signal, replicate 1 = 3408; Renilla reference signal, replicate 2 = 2897; inactive.
Knock-down of CG9550 came out at: firefly Hh reporter signal, replicate 1 = 1.22e5; firefly Hh reporter signal, replicate 2 = 74944; Renilla reference signal, replicate 1 = 2794; Renilla reference signal, replicate 2 = 6585; inactive.
CG14153 showed firefly Hh reporter signal, replicate 1 = 48192; firefly Hh reporter signal, replicate 2 = 83520; firefly Hh reporter signal, replicate 3 = 85626; Renilla reference signal, replicate 1 = 6595; Renilla reference signal, replicate 2 = 6368; inactive.
After knock-down of CG8858 the results were firefly Hh reporter signal, replicate 1 = 84949; firefly Hh reporter signal, replicate 2 = 44985; Renilla reference signal, replicate 1 = 2321; Renilla reference signal, replicate 2 = 3078; inactive.
With knock-down of Sf3a1 (Splicing factor 3a subunit 1), the screen gave firefly Hh reporter signal, replicate 1 = 51527; firefly Hh reporter signal, replicate 2 = 41638; Renilla reference signal, replicate 1 = 3409; Renilla reference signal, replicate 2 = 3254; active.
With knock-down of CG13894, the record shows firefly Hh reporter signal, replicate 1 = 30713; firefly Hh reporter signal, replicate 2 = 15984; Renilla reference signal, replicate 1 = 1377; Renilla reference signal, replicate 2 = 1621; inactive.
For m (miniature), the values are firefly Hh reporter signal, replicate 1 = 38954; firefly Hh reporter signal, replicate 2 = 1.65e5; Renilla reference signal, replicate 1 = 1440; Renilla reference signal, replicate 2 = 8122; inactive.
Knock-down of nerfin-1 (nervous fingers 1) resulted in: firefly Hh reporter signal, replicate 1 = 67140; firefly Hh reporter signal, replicate 2 = 46100; Renilla reference signal, replicate 1 = 2304; Renilla reference signal, replicate 2 = 3364; inactive.
For CG33768, the entry reads firefly Hh reporter signal, replicate 1 = 79446; firefly Hh reporter signal, replicate 2 = 86189; Renilla reference signal, replicate 1 = 3307; Renilla reference signal, replicate 2 = 1778; inactive.
After knock-down of CG8564, the record shows firefly Hh reporter signal, replicate 1 = 1.34e5; firefly Hh reporter signal, replicate 2 = 60485; Renilla reference signal, replicate 1 = 4603; Renilla reference signal, replicate 2 = 2508; inactive.

In a second layout: results already given
target,"firefly Hh reporter signal, replicate 1","firefly Hh reporter signal, replicate 2","firefly Hh reporter signal, replicate 3","Renilla reference signal, replicate 1","Renilla reference signal, replicate 2",call
nerfin-1 (nervous fingers 1),67140,46100,,2304,3364,inactive
CG33768,79446,86189,,3307,1778,inactive
